The campaign covered roughly 390,000 compounds. About 910 (0.23%) were called active. Inconclusive means that the source gave no clear call. Such entries were picked first, then a sample of the others. Calls follow the shape of the dose curve; as a rule, active = well fitted inhibition curve with a large enough effect; inconclusive = small, poorly fitted or top-dose-only effect; inactive = no such curve, though single readings can be large or run the other way. Potencies beside an inconclusive call are fits to weak or partial responses and may not hold up.
molecular target: Ubiquitin carboxyl-terminal hydrolase 1 (Homo sapiens) (UniProt O94782); experiment: Inhibitors of USP1/UAF1: Primary Screen; details: recombinant USP1/UAF1, Ub-Rhodamine cleavage fluorescence; activity change, negative = inhibition: at 57.1 µM (top of the series); also: nearly all actives have a fitted effect of over 60% in size
How it was run: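 1 nM enzyme complex + cpd, 15 min RT; start with Ub-Rho 150nM final; kinetic fluorescence ex 480/em 540, 6 reads q60 s. Buffer 50mM HEPES pH 7.8, 0.5mM EDTA, 0.1 mg/ml BSA, 1mM TCEP, 0.01% Tween-20.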
% is scaled to controls: 0 for no effect and ±100 for the full control effect; potency is read from the fitted curve at half-maximal effect.

By UniProt entry, the sequences of proteins in these tests, tags left out. Where a name states a change or a piece, a line headed by the entry shows the natural chain unless it says otherwise.
UniProt O94782: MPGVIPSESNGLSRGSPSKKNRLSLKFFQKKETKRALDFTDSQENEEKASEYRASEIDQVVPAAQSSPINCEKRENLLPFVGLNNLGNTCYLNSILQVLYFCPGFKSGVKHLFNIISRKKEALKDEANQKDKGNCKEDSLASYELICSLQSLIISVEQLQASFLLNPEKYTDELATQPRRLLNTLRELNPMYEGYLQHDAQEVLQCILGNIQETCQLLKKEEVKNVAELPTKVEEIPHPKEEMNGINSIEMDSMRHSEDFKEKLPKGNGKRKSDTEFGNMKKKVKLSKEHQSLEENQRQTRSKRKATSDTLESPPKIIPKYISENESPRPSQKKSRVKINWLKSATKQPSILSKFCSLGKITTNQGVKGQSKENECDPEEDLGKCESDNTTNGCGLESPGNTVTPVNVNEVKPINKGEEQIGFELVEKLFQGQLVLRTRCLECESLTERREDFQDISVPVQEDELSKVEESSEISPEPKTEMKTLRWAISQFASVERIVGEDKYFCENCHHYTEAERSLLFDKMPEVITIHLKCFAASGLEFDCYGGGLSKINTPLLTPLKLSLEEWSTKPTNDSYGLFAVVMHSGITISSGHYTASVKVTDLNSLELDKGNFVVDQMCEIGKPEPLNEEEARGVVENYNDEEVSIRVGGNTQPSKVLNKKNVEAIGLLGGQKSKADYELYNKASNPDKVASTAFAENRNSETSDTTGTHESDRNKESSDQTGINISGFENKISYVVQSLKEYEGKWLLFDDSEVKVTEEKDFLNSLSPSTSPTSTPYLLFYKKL

Compound	Potency	activity change, negative = inhibition
COc1cccc(NC(=O)[C@H](NC(=O)[C@@H]2Cc3ccccc3CN2)c2ccccc2)c1	inconclusive: 11.2 µM [inhibitor, partial curve, poor fit]	–
O=c1oc2c3c4c(cc2c2c1CCC2)OCCN4CCC3	inconclusive: 39.8 µM [inhibitor, single point]	–
Oc1c(C(Nc2cccc(C(F)(F)F)c2)c2cccnc2)ccc2cccnc12 (centres undefined)	–	inactive: -18.8%
CCNC(=S)NNC(=O)C(c1ccccc1)c1ccccc1	inconclusive: 4.47 µM [inhibitor, full curve, poor fit]	–
CC(=O)c1ccc(C(=O)Nc2ccc(N3CCOCC3)cc2)cc1	–	inactive: -22.9%
O=C(CN1C(=O)COc2ccc(S(=O)(=O)Nc3ccccc3)cc21)NCc1ccccc1Cl	inconclusive: 8.91 µM [inhibitor, partial curve]	–
Cc1cc2c(cc1C)CSC(c1c(O)ccc3ccccc13)SC2	–	inactive: -20.8%
O=c1[nH]c2ccc(Br)cc2o1	inconclusive: 44.7 µM [inhibitor, single point]	–
N#CC1C(C#N)N2CCCN2C1c1ccc(Cl)cc1 (centres undefined)	–	inactive: 1.48%
NC(=O)NC(=O)CSc1cccc(C(F)(F)F)c1	inconclusive: 0.501 µM [inhibitor, full curve, poor fit]	–
Cc1cccc(N=Nc2c(C)c(C#N)c(O)[nH]c2=O)c1	inconclusive: 28.2 µM [inhibitor, partial curve]	–
CCOc1ccc(OCC)c(NC(=O)CN(c2ccc(C)cc2)S(=O)(=O)c2c(C)n[nH]c2C)c1	inconclusive: 2.82 µM [inhibitor, full curve]	–
CCOc1ccc(NC(=O)C(CC)n2nc(-c3ccc(C)c(C)c3)ccc2=O)cc1 (centres undefined)	inconclusive: 31.6 µM [inhibitor, partial curve]	–
CN1C(=O)NC(c2ccc(O)cc2)C2=C1CN(c1ccccc1)C2=O (centres undefined)	–	inactive: -21.7%
CC(=O)NC(c1ccccc1)c1c(O)ccc2ccccc12 (centres undefined)	–	inactive: -20.5%
Cc1ccc(-n2c(O)c(/C=N/NC(=O)C3COc4ccccc4O3)c3ccccc3c2=O)cc1 (centres undefined)	–	inactive: -20.2%
COc1cc(Cl)c(NS(=O)(=O)c2ccc3[nH]c(=O)ccc3c2)c(OC)c1	inconclusive: 50.1 µM [inhibitor, partial curve, poor fit]	–
CC1(C)Cc2c(sc(NC(=O)COc3cccc4ccccc34)c2C#N)C(C)(C)N1	active: 17.8 µM	–
N#CC1=C(N)C(C#N)(C#N)C(c2ccc[nH]2)C2CCCC=C12 (centres undefined)	–	inactive: -25.3%
NC(=O)Nc1ccc(C(=O)OCC(=O)c2c[nH]c3ccccc23)cc1	inconclusive: 44.7 µM [inhibitor, partial curve, poor fit]	–
Cc1ccc(C)c(NC(=O)C2CCCN(S(=O)(=O)c3cccc4nsnc34)C2)c1 (centres undefined)	inconclusive: 4.47 µM [inhibitor, full curve, poor fit]	–
O=C(CN1C(=O)/C(=C/c2ccco2)SC1=S)NC1CCS(=O)(=O)C1 (centres undefined)	inconclusive: 39.8 µM [inhibitor, partial curve]	–

A different layout for 2 compounds above.
Compound,Potency,"activity change, negative = inhibition"
N#CC1C(C#N)N2CCCN2C1c1ccc(Cl)cc1 (centres undefined),–,inactive: 1.48%
NC(=O)NC(=O)CSc1cccc(C(F)(F)F)c1,"inconclusive: 0.501 µM [inhibitor, full curve, poor fit]",–

(listing goes on)

Compound	Potency	activity change, negative = inhibition
COc1ccc(-n2c(SCC(=O)N(C)C3CCS(=O)(=O)C3)nc3ccc(O)cc3c2=O)cc1OC (centres undefined)	–	inconclusive: -16.9% [inhibitor]
CCOc1ccc(CCNC(=O)c2ccc3[nH]c(C)c(C)c3c2)cc1	inconclusive: 6.31 µM [inhibitor, single point]	–
CCCCN1C(=O)/C(=C/C=C2\Oc3ccccc3N2CC)SC1=S	inconclusive: 35.5 µM [inhibitor, partial curve]	–
CCOc1cc(C(=O)N=c2sccn2C)cc(Br)c1OC	inconclusive: 79.4 µM [inhibitor, partial curve, poor fit]	–
C=CCCN(C(C(=O)OC)C(C)C)S(=O)(=O)c1ccccc1Br (centres undefined)	inconclusive: 20 µM [inhibitor, partial curve, poor fit]	–
CC(C)c1ccc(NC(=O)N2CCN(S(=O)(=O)c3ccccc3)CC2)cc1	inconclusive: 44.7 µM [inhibitor, partial curve, poor fit]	–
Cc1ccc(OCCC(=O)OCC(=O)Nc2cc(C)nn2-c2ccccc2)cc1	–	inactive: -9.02%
COc1ccc(OC2CCN(S(=O)(=O)c3ccc(OC)cc3)CC2)cc1	inactive	–
CCOC(=O)c1cnc2c(C)c(Cl)ccc2c1Nc1ccc(C)cc1C	inconclusive: 0.0282 µM [inhibitor, full curve, poor fit]	–
Cc1ccc(N2NC(=O)/C(=C\c3cc4c(cc3[N+](=O)[O-])OCO4)C2=O)cc1C	–	inactive: -26.4%
CC(/C=N/NC(=O)c1cccs1)=C\c1ccccc1	inconclusive: 1.78 µM [inhibitor, partial curve]	–
CCN(CC)C(=O)c1sc2nc(-c3cccs3)cc(-c3cccs3)c2c1N	inconclusive: 39.8 µM [inhibitor, single point]	–
COc1ccc(CNS(=O)(=O)c2cc(C(=O)Nc3cc(Cl)cc(Cl)c3)ccc2F)cc1	–	inactive: -19.2%
CCOC(=O)C1C(=O)C(C(=O)OCC)C(c2cccnc2)NC1c1cccnc1 (centres undefined)	–	inactive: -8.41%
COc1cc2c(cc1OC)CN(C(=O)c1ccc([N+](=O)[O-])o1)CC2	inconclusive: 0.251 µM [inhibitor, full curve]	–
CCc1ccc(C(=O)N/N=C(\C)c2ccncc2)s1	inconclusive: 50.1 µM [inhibitor, partial curve, poor fit]	–
CCOc1ccc(OCCC(=O)OCC(=O)N2CCN(S(=O)(=O)c3ccc(C)cc3)CC2)cc1	inconclusive: 35.5 µM [inhibitor, partial curve]	–
Cc1ccc(C)c(N2CCN(C(=O)C3CCN(S(=O)(=O)c4cn(C)cn4)CC3)CC2)c1	inconclusive: 0.708 µM [inhibitor, full curve, poor fit]	–
CC(=O)Nc1ccc(Nc2nc3ccccc3nc2NS(=O)(=O)c2ccc(Cl)c([N+](=O)[O-])c2)cc1	inconclusive: 28.2 µM [inhibitor, partial curve]	–
O=S(=O)(c1ccccc1)N(CC1CO1)c1ccccc1 (centres undefined)	–	inactive: -19.6%
CCN1CCN(c2ccc(NC(=O)c3ccc(F)cc3)cc2Cl)CC1	–	inactive: -19.3%
CCc1ccc(S(=O)(=O)c2nnn3c2nc(NCc2cccs2)c2sccc23)cc1	inconclusive: 44.7 µM [inhibitor, partial curve]	–

Reference: PubChem BioAssay AID743255 (National Center for Advancing Translational Sciences (NCATS), 2014)
